Patent US20240383874A1, “BENZENE RING DERIVATIVE, AND COMPOSITION AND PHARMACEUTICAL USE THEREOF” (Xizang Haisco Pharmaceutical Co., Ltd., priority 2020, published 2024)
pIC50: −log10 of the molar value. Some of these results come from one statement about several compounds together.

Key:
[1] = system: 22RV1 cells; assay: Experiment 2 on inhibiting 22RV1 cell proliferation (7 days, CellTiter-Glo); format: cell-based; conditions: 1% css-FBS phenol red-free medium, incubated with compound 7 days
Procedure: (§1) Prostate cancer cells 22RV1 were purchased from ATCC, the cell medium was RPMI 1640+10% FBS, and the cells were cultured in an incubator at 37° C. under 5% CO2. On day 1, the cells in an exponential phase were collected. With a 1% css-FBS phenol red-free medium, the cell suspension was adjusted to a corresponding concentration, plated at 2000 cells/well and incubated overnight. On day 2, compounds at different concentrations were added, and the plate was placed in the incubator and incubated for further 7 days. After the incubation was completed, according to operation instructions for a CellTiter-Glo kit (Promega, G7573), 50 μL of CTG solution, which was already pre-melted and equilibrated to room temperature, was added to each well, and the mixtures were uniformly mixed for 2 min using a microplate shaker. The plate was placed at room temperature for 10 min, and then fluorescence signal values were measured using a microplate reader (PHERAstar FSX). The results were processed according to formula (2), the survival rate of the compound at different concentrations was calculated, and the IC50 value of the compound with a survival rate of 50% was calculated using origin9.2 software with DoseResp function, wherein RLU compound was the readout of the treated group, and RLU control was the average value of the DMSO vehicle control group.

[2] = system: 22RV1 cells; assay: Experiment 1 on inhibiting 22RV1 cell proliferation (5 days, CellTiter-Glo); format: cell-based; conditions: 1% css-FBS phenol red-free medium, incubated with compound 5 days, listed as compound 3, read-out: IC50 values on proliferation inhibition of 22RV1 cells
Procedure: as §1, with “further 5” for “further 7”, “formula (1),” for “formula (2),”, “wherein RLUcompound” for “wherein RLU compound”, “and RLUcontrol” for “and RLU control”

In the case of `Cn1c(=O)n(C2CCC(=O)NC2=O)c2cccc(CN3CC(N4CCC(N5CCC6(CC5)CN(c5nccc(COc7ccc(C(C)(C)c8cc(Cl)c(OCCCl)c(C#N)c8)cc7)n5)C6)CC4)C3)c21` (centres unmarked) [Compound 26, 3-chloro-2-(2-chloroethoxy)-5-(2-(4-((2-(7-(1-(1-((1-(2,6-dioxopiperidin-3-yl)-3-methyl-2-oxo-2,3-dihydro-1H-benzo[d]imidazol-4-yl)methyl)azetidin-3-yl)piperidin-4-yl)-2,7-diazaspiro[3.5]nonan-2-yl)pyrimidin-4-yl)methoxy)phenyl)propan-2-yl)benzonitrile], the pIC50 ([1]; listed as compound 26, read-out: IC50 values on proliferation inhibition of 22RV1 cells) was > 5.30.

`CC(C)(c1ccc(OCc2ccnc(N3CCC4(CC3)CN(C3CCN(CC5CCN(c6ccc7c(c6)C(=O)N(C6CCC(=O)NC6=O)C7=O)CC5)CC3)C4)n2)cc1)c1cc(Cl)c(OCCCl)c(C#N)c1` (centres unmarked) [Compound 21, 3-chloro-2-(2-chloroethoxy)-5-(2-(4-((2-(2-(1-((1-(2-(2,6-dioxopiperidin-3-yl)-1,3-dioxoisoindolin-5-yl)piperidin-4-yl)methyl)piperidin-4-yl)-2,7-diazaspiro[3.5]nonan-7-yl)pyrimidin-4-yl)methoxy)phenyl)propan-2-yl)benzonitrile] was tested, and the pIC50 ([1]; listed as compound 21, read-out: IC50 values on proliferation inhibition of 22RV1 cells) was > 5.30.

For `CCOc1c(Cl)cc(C(C)(C)c2ccc(OCc3ccnc(N4CCN(C5CCN(C6CN(Cc7cccc8c7n(C)c(=O)n8C7CCC(=O)NC7=O)C6)CC5)CC4)n3)cc2)cc1C#N` (centres unmarked) [Compound 18, 3-chloro-5-(2-(4-((2-(4-(1-(1-((1-(2,6-dioxopiperidin-3-yl)-3-methyl-2-oxo-2,3-dihydro-1H-benzo[d]imidazol-4-yl)methyl)azetidin-3-yl)piperidin-4-yl)piperazin-1-yl)pyrimidin-4-yl)methoxy)phenyl)propan-2-yl)-2-ethoxybenzonitrile], the pIC50 ([1]; listed as compound 18, read-out: IC50 values on proliferation inhibition of 22RV1 cells) was > 5.30.

In the case of `CC(C)(c1ccc(OCc2ccnc(N3CCC(CN4CCC(C5CCN(c6ccc7c(c6)C(=O)N(C6CCC(=O)NC6=O)C7=O)CC5)CC4)C3)n2)cc1)c1cc(Cl)cc(C#N)c1` (centres unmarked) [Compound 130, 3-chloro-5-(2-(4-((2-(3-((1′-(2-(2,6-dioxopiperidin-3-yl)-1,3-dioxoisoindolin-5-yl)-[4,4′-bipiperidin]-1-yl)methyl)pyrrolidin-1-yl)pyrimidin-4-yl)methoxy)phenyl)propan-2-yl)benzonitrile], the pIC50 ([1]; listed as compound 130, read-out: IC50 values on proliferation inhibition of 22RV1 cells) was > 5.30.

In the case of `CC(C)(c1ccc(OCc2ccnc(N3CCC(N4CCC(C5CCN(c6ccc7c(c6)C(=O)N(C6CCC(=O)NC6=O)C7=O)CC5)CC4)CC3)n2)cc1)c1cc(Cl)cc(C#N)c1` (centres unmarked) [Compound 131, 3-chloro-5-(2-(4-((2-(1″-(2-(2,6-dioxopiperidin-3-yl)-1,3-dioxoisoindolin-5-yl)-[4,1′:4′,4″-terpiperidin]-1-yl)pyrimidin-4-yl)methoxy)phenyl)propan-2-yl)benzonitrile], the pIC50 ([1]; listed as compound 131, read-out: IC50 values on proliferation inhibition of 22RV1 cells) was > 5.30.

`O=C1CCC(N2C(=O)c3ccc(N4CCC(CN5CCN(S(=O)(=O)Nc6ccc(Cl)cc6C(=O)Nc6ccc(C(F)(F)F)cc6Cl)CC5)CC4)cc3C2=O)C(=O)N1` (centres unmarked) [Compound 3, 5-chloro-N-(2-chloro-4-(trifluoromethyl)phenyl)-2-((4-((1-(2-(2,6-dioxopiperidin-3-yl)-1,3-dioxoisoindolin-5-yl)piperidin-4-yl)methyl)piperazine)-1-sulfonamido)benzamide] gave a pIC50 [2] of 5.82 to 6.30.

`CC(C)(c1ccc(OCc2ccnc(N3CCN(CC4CCN(C5CCN(c6ccc7c(c6)C(=O)N(C6CCC(=O)NC6=O)C7=O)CC5)CC4)CC3)n2)cc1)c1cc(Cl)c(OCCCl)c(C#N)c1` (centres unmarked) [Compound 11, 3-chloro-2-(2-chloroethoxy)-5-(2-(4-((2-(4-((1′-(2-(2,6-dioxopiperidin-3-yl)-1,3-dioxoisoindolin-5-yl)-[1,4′-bipiperidin]-4-yl)methyl)piperazin-1-yl)pyrimidin-4-yl)methoxy)phenyl)propan-2-yl)benzonitrile] was tested, and the pIC50 ([1]; listed as compound 11, read-out: IC50 values on proliferation inhibition of 22RV1 cells) was > 5.30.

`CC(C)(c1ccc(OCc2ccnc(N3CCC4(CC3)CCN(C3CCN(CC5CCN(c6cccc7c6C(=O)N(C6CCC(=O)NC6=O)C7=O)CC5)CC3)CC4)n2)cc1)c1cc(Cl)c(OCCCl)c(C#N)c1` (centres unmarked) [Compound 28, 3-chloro-2-(2-chloroethoxy)-5-(2-(4-((2-(9-(1-((1-(2-(2,6-dioxopiperidin-3-yl)-1,3-dioxoisoindolin-4-yl)piperidin-4-yl)methyl)piperidin-4-yl)-3,9-diazaspiro[5.5]undecan-3-yl)pyrimidin-4-yl)methoxy)phenyl)propan-2-yl)benzonitrile] was tested, and the pIC50 ([1]; listed as compound 28, read-out: IC50 values on proliferation inhibition of 22RV1 cells) was > 5.30.
